Most values lie at the floor of the assay. Slopes are relative: functional sequences can read slightly below zero.

For the series, the system named is Saccharomyces cerevisiae PS128 hsf1 delta, HSF1(1-493) fusion. Put plainly: growth estimate (transactivation domain function in HSF1 fusion, heat-shock survival) (a.u. (slope of normalised read count over time)); higher = stronger growth at 37°C, i.e. more transactivation activity. Conditions: library: random library. The procedure: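 Random 60-nt DNA library encoding peptides of up to 20 aa, fused to the C-terminus of yeast HSF1 residues 1-493 (C-terminal TAD deleted) and expressed from the native HSF1 promoter on a CEN plasmid in hsf1-deleted S. cerevisiae PS128. Cells were selected at 37°C on -trp 5-FOA plates for 0, 2, 4, 6 and 8 days and amplicons were sequenced. Growth estimate is the slope of a robust linear fit of total-sum-normalised read counts (normalised to the first time point) over time, using at least 2 replicates. Sequences are classed functional (TAD activity) above a threshold of -0.13, set from stop-codon control sequences.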
In the case of PAVMQAYGGIPPKLQ, the growth estimate was under -0.25. To DSRLGRASNRELLEAHEKST belongs under -0.25; to LISNYQAMSSRDSVWNDRVP, under -0.25. To GGHIVPKR belongs under -0.25; to EQLIQRCRALITPSALQSLE, under -0.25. To VTLLSGSASATSDQPA belongs under -0.25. As to LIH, the growth estimate was under -0.25. As for YGKNLVRDLIIHLFQSV, the figure is under -0.25; as for PHKTETKISQIVIARYHTII, under -0.25. As for ALVPRR, the figure is under -0.25; as for DLIAPLESL, -0.145; as for SGHRTSRGN, under -0.25. To NWQRAIGRQLGRSDGPCWTT belongs under -0.25. For DAFYGVSRHSSADAPVCSDQ, the growth estimate was under -0.25. As for TYAHSDGYFCVIRNEVLRVV, the figure is under -0.25. As for NRCRSRP, the figure is under -0.25; as for TNTS, -0.243. As to SRFGAVKLARGVNTFISVSP, the growth estimate was under -0.25. To YGDWGSGNRVTYGYTFSV belongs under -0.25; to EAVLWAFVEH, -0.224. To KGLDRIPPNCRYMTKKIVTA belongs under -0.25; to PYYGLPVVAVLDGGEWEFWV, under -0.25.

RMRSVADKLHDGRLGAITPR: the growth estimate is under -0.25. On to LHLLSESGVAGGSDQ, for which the growth estimate is under -0.25. To TRKTGLDSMTALLEHIISAV belongs under -0.25; to CRISSRVLSYARDC, under -0.25.

For FGVVELGSRGVSRISWLHGI, the growth estimate was under -0.25. To ELPDYVLLRPIV belongs under -0.25; to YVGSRLGYLGWRAGY, under -0.25; to LPATLYRVSTTIVGGASQ, under -0.25.

In the case of GSSSSKLSILCLVNHVGLPS, the growth estimate is under -0.25. As for IAAYLAPACGKSAIPVAMVG, the figure is under -0.25; as for GQPRF, under -0.25; as for KGIIRAGHS, under -0.25.

With WITGPRMQLGGAAEIFVARV, the growth estimate is under -0.25.

As to TVGHNMLGSVDRECPGAIRY, the growth estimate was under -0.25. To CAYSSCPGLMVFCGAYVLG belongs under -0.25. As for RTPRRDVTYLVRVLTIIIVD, the figure is under -0.25.

For QRFMLEFYRRLGLAELLRTV, the growth estimate is under -0.25. As for HSVPLRAGGLTG, the growth estimate is under -0.25. Regarding YPLCSGIGAVYSAPLRCLFA, the growth estimate was under -0.25. To SYGSDQRFEMFEARRHDVPG belongs under -0.25; to PDLGYVVVVGMSQGVTR, under -0.25. For ALQ, the growth estimate was under -0.25.

For GLYVDRLGQRAQPWNPGCVR, the growth estimate was under -0.25.

For CRVNKLFSRTLY, the growth estimate is under -0.25. Turning to SASQQRRFKPSEMVRHISSG, the growth estimate is under -0.25. As for VGTCACFKIQESPWNHLITD, the figure is under -0.25; as for FTKAWGT, under -0.25. As for DGVSGGPPSRITSVVFHSST, the figure is under -0.25.

Turning to QSGCFGRSSMHFTGCFYENL, the growth estimate was under -0.25.

As for QPATFHGSGSETEPMCADEI, the growth estimate is under -0.25.

Consider LILLSVQPR, for which the growth estimate is under -0.25. On to AGLV, for which the growth estimate is under -0.25.

As to LVHRNG, the growth estimate was under -0.25. To TGTIKRRYPK belongs under -0.25; to GREICS, under -0.25; to RKGEVLEDTVC, under -0.25. For the substance LGWMVLLGGHWKHPRKARDC, the growth estimate was under -0.25. For VIVFLDSKIHSSKR, the growth estimate was under -0.25. To IPAGRPSRVIHGAAADHGAV belongs under -0.25; to LSKGLGGPSV, under -0.25. To SNKWP belongs under -0.25.

As to DSEGRAQDYI, the growth estimate is under -0.25. To AYRVLNLSVRHP belongs under -0.25; to SRKGRATVNKLGS, under -0.25; to GPWNELGYYQLIRPRVLMGR, under -0.25. To SHRDRLCSILSSIVARASGM belongs under -0.25; to VDLLGPEAPHTSDFDQRLAT, under -0.25. On to LHVSSLLHRAGVFISPRIRA, for which the growth estimate was under -0.25. To CDHRRAFA belongs under -0.25. As for TLGSGTG, the figure is under -0.25. To PAVIPPSAW belongs under -0.25; to DYRTVTFGIQFVIVKVKPGC, under -0.25; to ISA, under -0.25.

On to YYAVVLTRSCSR, for which the growth estimate is under -0.25. As for AVPSAALEILKNAAL, the growth estimate was -0.246. As for RKLYFYSVRTPAESTVGR, the figure is under -0.25; as for RPTLRGAPVT, under -0.25; as for LRLSNSATCGYV, under -0.25. To LSRACDYHSGGLTATT belongs under -0.25; to RFKPQTGGDGRGDARGAIGI, under -0.25. In the case of SGFPFDPLSFSIR, the growth estimate was under -0.25. To IKGFSGGHYALL belongs under -0.25. To LNVSMEGVGRRIIAAHPQRP belongs under -0.25. For the substance SFLTAKSTCVNLKAIAIDVP, the growth estimate was under -0.25. As for RLDSDRL, the figure is under -0.25. As for PWVVAD, the figure is under -0.25; as for VKSGYLPSLNGLATV, under -0.25; as for IHT, -0.246. As for GGAFNRLRGRSLRERCERYT, the figure is -0.25. Regarding NVGETGR, the growth estimate is under -0.25. As for WIPVSNWEGREGEGTVPVPA, the figure is under -0.25; as for RKQVGTCTTRDGLGWLGISP, -0.246. To AHGHCSSGLAVRPAYGKEAP belongs under -0.25. As for TIQSIFKLSIRHRLMVPQWI, the figure is under -0.25; as for PYG, under -0.25; as for GYKM, under -0.253.

With NEVTSSYRCHLPAGHRCEEN, the growth estimate was under -0.25. As for LRCLPLVASQNKPSSAKFSD, the figure is under -0.25. As for NYWRG, the figure is under -0.25. On to TDHASMWFGDALRITLGSVE, for which the growth estimate was under -0.25. In the case of GNV, the growth estimate was under -0.25. RWSLHRSCPVES: the growth estimate is under -0.25. As for NVRTVQAM, the figure is under -0.25; as for DSVGTCPVGASKHRAV, under -0.25. As for TGRVYRVPGYGREAPIIVK, the figure is under -0.25; as for KVANHSSSEASDLATICYGG, under -0.25. To VDQRKSPKV belongs under -0.25. On to IFTGFGWVCGP, for which the growth estimate is under -0.25. To IIITPKKCGRGKVLWFKDRR belongs under -0.25; to ACDRLFR, under -0.25; to YLVVHPDSNPQH, under -0.25.

Turning to TWSLPTGVWSLGYDYVSGTW, the growth estimate was under -0.25. As for STNMLGRSPNCMRGKVCAPH, the figure is under -0.25; as for NGGSSTAS, under -0.25. As for PDRLKLPSEQSGKAAVGRPK, the figure is under -0.25; as for CRSGTSVPD, under -0.25.

Turning to AVSLSTRYKNGSHSQLTNIS, the growth estimate is under -0.25. As for SGIRLTDRPTMNSDKGQTIP, the figure is under -0.25. To WHNPWEQRSARECSFWGEGV belongs -0.194.

CHLANGGNFVTLMVV: the growth estimate is under -0.25. As for QFRGCKIYLV, the figure is under -0.25. On to AWCRVGFRWATNRIRLFDVA, for which the growth estimate was under -0.25. As for SPWVCPRPADHHTSYGSTGV, the figure is under -0.25.

As for ILPCYRRRKMSWSHSLIRHR, the growth estimate was under -0.25. For the substance PRVTVHTVPAATGDR, the growth estimate is under -0.25. As for ANRSLYLLKSLLTARVEWCP, the figure is under -0.25; as for FSDQRESPSWEQVLPASSGE, under -0.25.

For the substance PRVLCFRVFQTDRTTRQFGG, the growth estimate was under -0.25.

For WRCFVLPVA, the growth estimate is under -0.25. GFALKPSETYAFYLNP: the growth estimate is under -0.25. To FSYSGGQLARMNIRAQRPLG belongs under -0.25; to GGLRDRRATMRRRPFGRDAG, under -0.25; to GADVYTCQKTFSMLHI, under -0.25. For SEAAVVKWGRVTVNAYPNCK, the growth estimate was under -0.25. To AGIQ belongs -0.243; to AVLYYGYGLLMAFSSVRRKF, under -0.25. As for WWF, the figure is -0.179. As for RHTSERTIALLSFRHVIHQG, the figure is under -0.25. In the case of LFLFEADLCLGLSAEGRY, the growth estimate is -0.121.

For the substance LASERSSWAQWKLRNSDCNG, the growth estimate was under -0.25.

For MMRAHGTSRGSSVLGLPPHA, the growth estimate is under -0.25. For FNG, the growth estimate is under -0.25. To PQGERVSLKPGHGCRNCDKG belongs under -0.25; to HKRSVQIPRGNGDSHTIRGG, under -0.25. As for ARASRKEGLNSMVL, the figure is under -0.25; as for AVPCSGYWRCCSTSHRNSLV, under -0.25. With DTERGACVTSQRAC, the growth estimate was under -0.25.

With NSPNNAPPQRRTEFYAGFTA, the growth estimate is under -0.25.
